Laboratory results taken from publication doi:10.1101/2022.03.15.484481.
No constants are given. Whether binding was seen depends on the method and setting. Binding seen in cells or lysates may run through a third protein. Some binding calls cover weakened binding; strength is not graded here.

Chains of the proteins cited; added tags and fusions are not shown.
UniProt Q9VCA8: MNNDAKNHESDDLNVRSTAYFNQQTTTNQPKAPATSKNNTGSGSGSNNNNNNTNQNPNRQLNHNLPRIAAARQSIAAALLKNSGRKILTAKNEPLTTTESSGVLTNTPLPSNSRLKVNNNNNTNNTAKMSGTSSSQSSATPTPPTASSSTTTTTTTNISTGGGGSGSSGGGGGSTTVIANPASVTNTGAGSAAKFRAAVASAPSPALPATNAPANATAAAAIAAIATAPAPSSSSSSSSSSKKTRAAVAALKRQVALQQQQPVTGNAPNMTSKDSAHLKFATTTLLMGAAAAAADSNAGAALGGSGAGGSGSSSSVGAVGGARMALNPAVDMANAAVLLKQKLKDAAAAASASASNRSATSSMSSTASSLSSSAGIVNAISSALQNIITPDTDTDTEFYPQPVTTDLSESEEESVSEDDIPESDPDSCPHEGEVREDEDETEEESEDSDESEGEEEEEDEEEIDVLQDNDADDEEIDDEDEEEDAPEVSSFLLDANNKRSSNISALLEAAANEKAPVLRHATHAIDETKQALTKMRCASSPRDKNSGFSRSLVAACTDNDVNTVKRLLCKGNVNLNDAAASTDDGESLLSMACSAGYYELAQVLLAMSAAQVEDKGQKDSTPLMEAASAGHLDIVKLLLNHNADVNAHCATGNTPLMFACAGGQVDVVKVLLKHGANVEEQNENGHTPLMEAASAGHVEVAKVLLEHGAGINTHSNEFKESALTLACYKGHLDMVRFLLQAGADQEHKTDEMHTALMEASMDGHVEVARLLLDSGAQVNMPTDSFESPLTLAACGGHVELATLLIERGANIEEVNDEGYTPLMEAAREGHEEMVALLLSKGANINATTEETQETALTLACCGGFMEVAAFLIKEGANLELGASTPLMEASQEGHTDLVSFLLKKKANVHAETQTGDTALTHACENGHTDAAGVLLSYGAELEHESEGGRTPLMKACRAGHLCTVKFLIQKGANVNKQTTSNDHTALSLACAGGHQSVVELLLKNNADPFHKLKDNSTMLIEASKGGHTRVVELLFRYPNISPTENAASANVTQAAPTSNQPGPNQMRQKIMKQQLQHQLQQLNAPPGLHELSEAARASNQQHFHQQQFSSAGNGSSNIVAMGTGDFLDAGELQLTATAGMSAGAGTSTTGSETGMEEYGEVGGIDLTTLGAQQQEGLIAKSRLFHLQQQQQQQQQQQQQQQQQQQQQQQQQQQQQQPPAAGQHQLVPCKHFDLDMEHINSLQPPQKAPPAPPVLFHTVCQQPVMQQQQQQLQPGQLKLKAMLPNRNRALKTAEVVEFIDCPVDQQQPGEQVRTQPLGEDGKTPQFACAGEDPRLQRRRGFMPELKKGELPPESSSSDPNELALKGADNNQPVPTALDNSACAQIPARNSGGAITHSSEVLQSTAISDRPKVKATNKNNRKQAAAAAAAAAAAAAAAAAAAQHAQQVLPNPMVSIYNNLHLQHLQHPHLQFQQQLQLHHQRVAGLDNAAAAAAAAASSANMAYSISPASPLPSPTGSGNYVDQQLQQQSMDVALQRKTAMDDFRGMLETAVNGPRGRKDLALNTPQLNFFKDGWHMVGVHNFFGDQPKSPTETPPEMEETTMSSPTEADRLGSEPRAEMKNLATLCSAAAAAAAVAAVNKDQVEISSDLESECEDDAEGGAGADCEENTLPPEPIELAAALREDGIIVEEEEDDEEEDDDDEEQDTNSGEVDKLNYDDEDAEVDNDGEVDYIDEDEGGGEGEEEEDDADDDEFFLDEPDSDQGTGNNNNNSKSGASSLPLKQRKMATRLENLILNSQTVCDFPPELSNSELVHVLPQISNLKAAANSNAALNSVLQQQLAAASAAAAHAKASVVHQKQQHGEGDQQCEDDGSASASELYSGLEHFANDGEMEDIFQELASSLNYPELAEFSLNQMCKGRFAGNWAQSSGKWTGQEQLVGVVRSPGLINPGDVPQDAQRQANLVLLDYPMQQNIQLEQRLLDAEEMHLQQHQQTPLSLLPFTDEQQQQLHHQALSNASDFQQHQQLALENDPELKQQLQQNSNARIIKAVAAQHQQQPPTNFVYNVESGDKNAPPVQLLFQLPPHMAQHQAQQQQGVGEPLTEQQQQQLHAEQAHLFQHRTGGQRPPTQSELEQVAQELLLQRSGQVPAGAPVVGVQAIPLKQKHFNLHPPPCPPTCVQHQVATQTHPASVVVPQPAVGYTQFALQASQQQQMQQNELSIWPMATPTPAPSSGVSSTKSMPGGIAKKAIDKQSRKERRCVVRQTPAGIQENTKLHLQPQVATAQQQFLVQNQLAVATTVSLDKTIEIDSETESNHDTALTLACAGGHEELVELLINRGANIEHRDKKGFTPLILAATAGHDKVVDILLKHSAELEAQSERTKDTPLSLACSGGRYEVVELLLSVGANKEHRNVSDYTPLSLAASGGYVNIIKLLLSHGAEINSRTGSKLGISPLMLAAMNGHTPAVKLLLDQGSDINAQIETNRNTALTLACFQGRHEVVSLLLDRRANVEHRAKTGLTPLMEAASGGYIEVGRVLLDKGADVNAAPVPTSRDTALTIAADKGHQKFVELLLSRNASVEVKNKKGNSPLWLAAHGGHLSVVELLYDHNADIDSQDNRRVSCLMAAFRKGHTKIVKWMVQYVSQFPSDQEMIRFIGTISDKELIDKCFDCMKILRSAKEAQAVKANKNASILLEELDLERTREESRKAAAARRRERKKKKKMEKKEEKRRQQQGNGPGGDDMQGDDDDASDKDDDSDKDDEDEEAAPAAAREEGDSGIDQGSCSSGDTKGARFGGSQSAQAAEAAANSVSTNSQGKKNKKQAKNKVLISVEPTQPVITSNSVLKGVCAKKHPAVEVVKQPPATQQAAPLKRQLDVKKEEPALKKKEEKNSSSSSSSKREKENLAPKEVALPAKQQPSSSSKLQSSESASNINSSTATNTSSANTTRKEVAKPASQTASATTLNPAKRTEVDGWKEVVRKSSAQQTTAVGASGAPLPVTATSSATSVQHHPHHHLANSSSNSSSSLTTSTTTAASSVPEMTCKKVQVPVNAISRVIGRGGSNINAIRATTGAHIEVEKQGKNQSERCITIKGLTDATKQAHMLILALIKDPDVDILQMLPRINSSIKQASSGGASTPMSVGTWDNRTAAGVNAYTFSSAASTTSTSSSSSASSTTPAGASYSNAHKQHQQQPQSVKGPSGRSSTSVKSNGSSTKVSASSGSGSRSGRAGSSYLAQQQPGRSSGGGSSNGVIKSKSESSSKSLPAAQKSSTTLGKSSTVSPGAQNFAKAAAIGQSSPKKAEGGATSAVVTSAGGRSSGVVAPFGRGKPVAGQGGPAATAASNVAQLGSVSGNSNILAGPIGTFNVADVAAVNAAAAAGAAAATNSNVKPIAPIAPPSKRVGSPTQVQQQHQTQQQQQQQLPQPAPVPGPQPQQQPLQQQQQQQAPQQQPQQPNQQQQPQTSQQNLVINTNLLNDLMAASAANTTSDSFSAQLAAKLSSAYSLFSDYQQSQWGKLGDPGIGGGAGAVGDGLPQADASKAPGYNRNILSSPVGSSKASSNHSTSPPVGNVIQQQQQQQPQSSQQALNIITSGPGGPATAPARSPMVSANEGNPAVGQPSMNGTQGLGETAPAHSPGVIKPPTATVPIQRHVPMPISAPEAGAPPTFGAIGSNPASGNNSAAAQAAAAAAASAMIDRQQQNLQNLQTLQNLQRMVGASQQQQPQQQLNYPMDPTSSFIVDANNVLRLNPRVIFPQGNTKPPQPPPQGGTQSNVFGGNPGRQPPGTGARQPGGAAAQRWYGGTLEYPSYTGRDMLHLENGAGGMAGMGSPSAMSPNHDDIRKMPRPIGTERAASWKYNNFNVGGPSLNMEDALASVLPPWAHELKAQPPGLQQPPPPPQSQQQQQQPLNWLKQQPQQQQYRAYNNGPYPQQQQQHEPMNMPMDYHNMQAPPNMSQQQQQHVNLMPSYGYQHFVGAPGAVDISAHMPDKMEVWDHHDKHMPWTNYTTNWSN

Biological target: FLAG-tagged full-length Mask protein (Multiple ankyrin repeats single KH domain) (Drosophila) (UniProt Q9VCA8)
Assay: co-IP

binding: binds
Substance: CREB binding protein (CBP) (from UniProt Q9W321 1-3276)
